{"sequences": {"note": "Protein sequences, listed by entry. Tags and fused reporters are not part of them. Residues count along the entry.", "UniProt P49582, residues 23-502": "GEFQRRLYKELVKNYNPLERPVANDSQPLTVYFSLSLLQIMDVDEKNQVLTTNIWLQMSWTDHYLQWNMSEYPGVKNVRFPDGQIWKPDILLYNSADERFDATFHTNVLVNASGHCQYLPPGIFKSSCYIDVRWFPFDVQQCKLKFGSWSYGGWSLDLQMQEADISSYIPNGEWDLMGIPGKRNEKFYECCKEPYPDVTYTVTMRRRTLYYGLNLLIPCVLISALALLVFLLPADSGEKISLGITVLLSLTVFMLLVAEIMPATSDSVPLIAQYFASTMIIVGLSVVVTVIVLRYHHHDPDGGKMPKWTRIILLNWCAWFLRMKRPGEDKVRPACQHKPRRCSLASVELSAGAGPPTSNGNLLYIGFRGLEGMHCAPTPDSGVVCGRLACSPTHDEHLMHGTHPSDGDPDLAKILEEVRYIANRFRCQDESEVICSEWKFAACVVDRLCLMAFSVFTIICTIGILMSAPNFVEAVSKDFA", "UniProt Q9ERK7": "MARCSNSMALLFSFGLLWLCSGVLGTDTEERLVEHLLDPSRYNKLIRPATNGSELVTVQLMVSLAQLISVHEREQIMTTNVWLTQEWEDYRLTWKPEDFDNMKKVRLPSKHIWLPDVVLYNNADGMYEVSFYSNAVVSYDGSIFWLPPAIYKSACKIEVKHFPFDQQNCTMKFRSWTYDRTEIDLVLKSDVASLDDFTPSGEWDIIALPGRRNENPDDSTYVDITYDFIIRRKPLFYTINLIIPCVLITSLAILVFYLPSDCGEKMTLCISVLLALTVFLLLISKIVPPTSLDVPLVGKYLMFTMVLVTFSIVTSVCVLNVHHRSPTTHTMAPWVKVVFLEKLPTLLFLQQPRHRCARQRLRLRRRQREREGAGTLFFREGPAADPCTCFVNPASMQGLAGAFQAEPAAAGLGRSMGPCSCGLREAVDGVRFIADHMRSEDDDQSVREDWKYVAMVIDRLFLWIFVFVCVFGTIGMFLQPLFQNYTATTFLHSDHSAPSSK", "UniProt O70174, residues 31-629": "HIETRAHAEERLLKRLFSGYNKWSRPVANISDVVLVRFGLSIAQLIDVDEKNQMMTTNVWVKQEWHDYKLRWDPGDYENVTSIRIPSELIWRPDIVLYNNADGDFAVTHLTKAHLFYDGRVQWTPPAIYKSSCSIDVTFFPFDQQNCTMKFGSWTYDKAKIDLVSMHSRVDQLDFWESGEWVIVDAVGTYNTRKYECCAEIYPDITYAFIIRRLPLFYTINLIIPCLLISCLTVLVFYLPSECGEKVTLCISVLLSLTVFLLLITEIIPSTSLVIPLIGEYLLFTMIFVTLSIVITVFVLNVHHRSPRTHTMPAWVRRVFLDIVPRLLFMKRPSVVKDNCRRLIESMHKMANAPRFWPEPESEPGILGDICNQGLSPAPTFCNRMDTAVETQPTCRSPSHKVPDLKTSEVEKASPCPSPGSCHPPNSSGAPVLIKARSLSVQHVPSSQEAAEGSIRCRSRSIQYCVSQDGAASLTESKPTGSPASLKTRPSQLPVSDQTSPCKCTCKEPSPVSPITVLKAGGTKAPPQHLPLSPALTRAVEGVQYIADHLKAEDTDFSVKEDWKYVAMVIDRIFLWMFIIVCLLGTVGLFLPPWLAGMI"}, "source": "paper PMC3637639", "molecules": {"B1": {"name": "GluClα-CFP (glutamate-gated chloride channel α subunit tagged with CFP) (receptor, UniProt G5EBR3 21-461)", "chain": "QQARTKSQDIFEDDNDNGTTTLESLARLTSPIHIPIEQPQTSDSKILAHLFTSGYDFRVRPPTDNGGPVVVSVNMLLRTISKIDVVNMEYSAQLTLRESWIDKRLSYGVKGDGQPDFVILTVGHQIWMPDTFFPNEKQAYKHTIDKPNVLIRIHNDGTVLYSVRISLVLSCPMYLQYYPMDVQQCSIDLASYAYTTKDIEYLWKEHSPLQLKVGLSSSLPSFQLTNTSTTYCTSVTNTGIYSCLRTTIQLKREFSFYLLQLYIPSCMLVIVSWVSFWFDRTAIPARVTLGVTTLLTMTAQSAGINSQLPPVSYIKAIDVWIGACMTFIFCALLEFALVNHIANKQGVERKARTEREKAEIPLLQNLHNDVPTKVFNQEEKVRTVPLNRRQMNSFLNLLETKTEWNDISKRVDLISRALFPVLFFVFNILYWSRFGQQNVLF"}}, "assay_in_all_cases": "FRET or BRET; sensitized acceptor emission FRET (pixel- or ROI-based, PixFRET) between channel subunits tagged with donor (CFP/Cerulean) and acceptor (YFP/Venus), equimolar cDNAs co-transfected in living HEK293T cells, imaged 2 days after transfection in ECS pH 7.4 at 30°C; with or without untagged RIC-3 (0:1 to 5:1 cDNA ratio); in some experiments nicotine (0.1, 1 or 10 μM) for 30 min at 37°C before imaging", "key": {"[1]": {"target": "α7-Venus nAChR subunit (mouse) (UniProt P49582)"}, "[2]": {"target": "β2CFP nAChR subunit (mouse) (UniProt Q9ERK7)"}, "[3]": {"target": "T1, GluClβ-YFP (glutamate-gated chloride channel β subunit tagged with YFP) (UniProt Q17328)", "T1 sequence": "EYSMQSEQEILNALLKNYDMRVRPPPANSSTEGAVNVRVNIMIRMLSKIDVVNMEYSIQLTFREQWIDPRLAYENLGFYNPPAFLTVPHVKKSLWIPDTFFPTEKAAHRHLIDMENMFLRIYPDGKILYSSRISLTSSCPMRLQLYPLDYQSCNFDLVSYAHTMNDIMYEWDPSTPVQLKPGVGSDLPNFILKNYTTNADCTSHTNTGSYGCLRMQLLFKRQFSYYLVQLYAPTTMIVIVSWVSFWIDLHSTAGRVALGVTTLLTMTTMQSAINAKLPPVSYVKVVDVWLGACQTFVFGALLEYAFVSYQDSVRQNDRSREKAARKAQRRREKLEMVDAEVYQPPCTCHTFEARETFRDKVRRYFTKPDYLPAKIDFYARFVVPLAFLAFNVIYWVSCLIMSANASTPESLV"}}, "note": "These are yes or no findings as the source states them, for the method shown. Binding seen in cells or lysates may run through a third protein. Some entries that bind do so weakly or less than the wild type. For part of these data: Where a sequence is shown, tags or fusion partners need not be part of it."}
{"molecule": "α7-Cerulean nAChR subunit (from UniProt P49582 23-502) (receptor)", "values": [{"measurement": "binding", "setting": "[1]", "result": "binds"}]}
{"molecule": "α4YFP nAChR subunit (from UniProt O70174 31-629) (receptor)", "values": [{"measurement": "binding", "setting": "[2]", "result": "binds"}]}
{"molecule": "B1", "values": [{"measurement": "binding", "setting": "[3]", "result": "binds"}]}
